US20250368752A1 (AMPSOURCE BIOPHARMA SHANGHAI, published 2025)
These are yes or no findings as the source states them, for the method shown. Some results given as binding are weak or reduced against the parent protein; the word gives no strength.

Target: T1, human TFPI with a His tag (human, UniProt P10646 29-282, limits assumed)
T1 construct: Coupled to Ni-NTA sensors at 10 ug/mL for BLI; not shown: His tag
T1 sequence (looked up): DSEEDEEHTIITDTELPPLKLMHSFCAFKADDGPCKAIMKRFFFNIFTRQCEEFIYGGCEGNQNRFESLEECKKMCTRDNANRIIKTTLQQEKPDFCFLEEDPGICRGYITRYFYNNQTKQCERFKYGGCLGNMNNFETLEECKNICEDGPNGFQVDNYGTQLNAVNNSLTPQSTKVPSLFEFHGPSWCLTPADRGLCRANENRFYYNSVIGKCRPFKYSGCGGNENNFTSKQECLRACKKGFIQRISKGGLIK
Test: BLI (ForteBio Octet), His-tagged human TFPI on Ni-NTA sensors

binding: binds
B1: mouse monoclonal antibody against human TFPI, mAb3-71 (antibody, V domains shown)
VH: QVQLQQPEAELMKPGASVKLSCKASGYTFTSYWMHWVKQRPGQGLEWIGEIKPDNGRINYNEKFKTKATLAVDKSSSTAYMQLNSLTSGDSAVYYCARSSVVDVAMDYWGQGTSVSVSS
VL: QIVLTQSPAIMSASPGEKVTLTCSASSSVSSSYLYWYQQKPGSSPKLWISGTSILASGVPARFSGSGSGTSYSLTISSMEAEDTASYFCHQWSHYPFTFGSGTKLEIK
notes: also called hybridoma cell line #3-71
